Part of at least one peptide drawing is inferred or uncertain, most often the ends. Numbered stars: 1 amine (or outer) side, 2 acyl side, 3 side chain; on linkers, the order of the positions; unused ones are H or OH. Bridge positions count the residues as written; N and C are the ends. Square brackets hold non-standard residues; d marks the D form. Peptide text beside a SMILES is read from it. * marks the point of attachment. 5FAM = O=C1OC2(c3ccc(O)cc3Oc3cc(O)ccc32)c2ccc(C(=O)*)cc21; 1Nal = N[C@@H](Cc1cccc2ccccc12)C(=O)O; TBMB = c1c(C[*:1])cc(C[*:3])cc1C[*:2]; Tle = CC(C)(C)[C@H](N)C(=O)O; βAla = NCCC(=O)O; Sar = CNCC(=O)O
Target: T1, MT1-MMP hemopexin domain (Homo sapiens, UniProt P50281)
T1 construct: residues Cys319-Gly511 from the human gene; His6 (N); made in house; host or cells: HEK293 (transient), pEXPR-IBA42 vector
Experiment: Direct binding fluorescence polarisation (FP) assay
Conditions: MMP-1, MMP-2, MMP-15, MMP-16
Description: Direct Binding Fluorescence Polarisation or Anisotropy Assays are performed by titrating a constant concentration of fluorescent tracer (here, the fluoresceinated bicyclic peptide to be studied) with its binding partner (here, the MT1-MMP hemopexin domain). As the concentration of binding partner increases during the titration, the polarisation signal changes in proportion to the fraction of bound and unbound material. This allows determination of […] (Kd) quantitatively. Assay data can be fit using standard ligand binding equations.
The titrant (binding partner) concentration is varied from 0.1 nM up to typically 5 μM. The range is chosen such that the maximum change in fluorescent polarisation can be observed. Buffers employed are phosphate buffered saline in the presence of 0.01% Tween. Experiments were run in black 384 well low-bind/low volume plates (Corning 3820), and the fluorescent polarisation signal was measured using a BMG Pherastar FS plate reader.
Fluorescent tracers referred to in the text are bicyclic peptides that have been fluoresceinated using 5,6-carboxyfluorescein. Fluoresceination may be performed on the N-terminal amino group of the peptide, which is separated from the bicycle core sequence by a sarcosine spacer (usually Sar5). […]

C[C@H](NC(=O)CN(C)C(=O)CN(C)C(=O)CN(C)C(=O)CN(C)C(=O)CN(C)C(=O)CN(C)C(=O)CN(C)C(=O)CN(C)C(=O)CN(C)C(=O)CN(C)C(=O)CCNC(=O)c1ccc2c(c1)C(=O)OC21c2ccc(O)cc2Oc2cc(O)ccc21)C(=O)N[C@H]1CSCc2cc3cc(c2)CSC[C@H](NC(=O)[C@@H](C)NC(=O)[C@H](Cc2cccc4ccccc24)NC(=O)[C@H](CCC(=O)O)NC(=O)[C@H](CC(N)=O)NC(=O)[C@@H](C)NC1=O)C(=O)N[C@@H](CCC(=O)O)C(=O)N[C@@H](CC(=O)O)C(=O)N[C@@H](Cc1ccccc1)C(=O)N[C@@H](Cc1ccc(O)cc1)C(=O)N[C@@H](CC(=O)O)C(=O)N[C@@H](C(C)(C)C)C(=O)N[C@H](C(N)=O)CSC3 [17-69-07-N258, Fluorescein-(bAla)-Sar10-A-(17-69-07) D-Ala1 1Nal4 D-Ala5 tBuGly11] ({5FAM-βAla}-[Sar][Sar][Sar][Sar][Sar][Sar][Sar][Sar][Sar][Sar]AC[dA]NE[1Nal][dA]CEDFYD[Tle]C-NH2; linker 12-18-25 via TBMB)
selectivity versus related human metalloproteinases: uniquely selective for MT1-MMP

— patent US10532106B2 (priority 2014, dated 2020)
